This data set concerns ClPIF3 (Citrullus lanatus). The experiment in a line: EMSA. The note with it: Chemiluminescent EMSA Kit (Beyotime GS009); pH and temperature not stated; unlabeled competitor at 100-fold; recombinant protein; protein details: GST (N-terminal, pGEX-6P-1); label: biotin. A general note: In EMSA bound probe runs differently from free probe, usually more slowly.

Construct, isoform or probe ends are uncertain for at least one entry.

Turning to “AACATAGAAACGTGGAAATCAA (double strand) [ClPSY1 promoter G-box probe (G-box-B)]”, the binding result is recorded as “binds”.

For the origin of these results see article PMC9024441.
